Measurements from “University of Dundee, Small-Polar-MMV Screening Library” (2021), ChEMBL document CHEMBL3988442.

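Phenotypic screen: M. tuberculosis growth, cholesterol and DPPC medium, 4 days; the read-out is not stated. Tested at 500 µM. Higher reads as more growth inhibition (inferred: compounds with an IC50 in retests scored well above the rest). Of about 18,000 compounds tested this way, about 900 (5%) reached 50% or more in at least one test.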

Results are given as percent effect.
How 0% and 100% were set is not recorded. Most values in the screen are low, and negative values occur.
This is an unselected part of the compounds tested.

With COc1ccc(CN2CCCNCC2)cc1 the screen gave 51.41%. For Cc1occc1C(=O)NCC(F)(F)F the result was -0.4743%. Cc1cc(NC(=O)CN(C)Cc2ccccc2)no1 gave 77.85%. CC1(c2ccccc2)CN(C(=O)c2cc[nH]n2)CCO1 (centres unmarked) gave 4.616%.

Result for CC(C)(C)OC(=O)NCCCOCCOCCO was 3.123%. COCC(O)CNc1ccc2ccc(F)cc2n1 (centres unmarked) gave 29.16%. Result for CC(C)(C(=O)NCc1nnc[nH]1)c1cccc(Cl)c1 was 14.8%. Result for CCc1ccc(CN2CC(N3CCOCC3)C2)o1 was 87.92%.

COCCNC(=O)c1cc2cc(C)ccc2n1C read 61.8%. For CCn1cnnc1CN(C)Cc1cc(C(C)=O)cn1C the result was -4.573%. Result for CC(=O)Nc1nc(C(=O)NCc2ccc(C)s2)cs1 was 77.57%. CN(Cc1ccco1)C(=O)CN1CCCCC1 gave -9.982%.

For CC(C)C(C)(CO)NC(=O)CN(C)C1CC1 (centres unmarked) the result was 3.485%. With COc1ccc(NC(=O)c2cccn2C)cc1OC the screen gave 14.82%. CS(=O)(=O)NCCc1nc2c(s1)CCCC2 read 10.12%. CC1CS(=O)(=O)CCN1Cc1ccc(F)c(C#N)c1 (centres unmarked) gave -17.01%.

With c1ccc(-c2nc3c([nH]2)CCNC3)cc1 the screen gave 16.37%. For Cc1ccc(NC(=O)CN(C)C(=O)C(C)C)cc1 the result was 23.6%. Cn1ccnc1-c1noc(NC(=O)c2ccccn2)n1 read 3.013%. For CN(C)C(=O)N1CCN(c2ncccc2C#N)CC1 the result was 0.6608%.

COc1ccc(C)cc1NC(=O)Cn1cccn1 read 26.65%. Result for CN1CCN(C(=O)Cn2ccc(N)n2)CC1 was -30.27%. Result for CCOC(=O)N1CCC(N2CCN(CCO)CC2)CC1 was 7.591%. CC(C)(C)OC(=O)NCC(C)(N)C1CC1 (centres unmarked) gave 16.25%.

CS(=O)(=O)CCn1ccnc1-c1cccc(Br)c1 read -17.19%. CSCc1ccc(C(=O)NCCc2ncnn2C)o1 gave 9.263%. O=C(CCC(=O)c1ccccc1)NCc1n[nH]c(=O)[nH]1 gave -10.78%. With COC(=O)C(C)SCCc1cccnc1 (centres unmarked) the screen gave 6.079%.

For NCC1CCC2(CCCCC2)O1 (centres unmarked) the result was -21.93%. O=C(NCC1(O)CCNC1)Nc1cccc(F)c1 (centres unmarked) gave 2.536%. For COCCCNC(=O)CSc1ccc2ccccc2n1 the result was 15.89%. Result for CN(CC1(O)CCCC1)c1ncccn1 was -2.927%.

For CCOCC(=O)Nc1ccc(OC)c(-n2cnnn2)c1 the result was 31.24%. Cc1ccc(C(=O)NCCc2ccccn2)c(=O)[nH]1 gave -4.168%. O=C1CC(C(=O)NCc2ccco2)C2(CCCCC2)O1 (centres unmarked) gave 26.61%. For CS(=N)(=O)c1ccccc1Br (centres unmarked) the result was 2.018%.

COc1cnc(N2C[C@H](C(C)C)[C@@H](N)C2)nc1 gave 6.626%. COc1cccc(NC(=O)C2CCCN(C)C2)c1 (centres unmarked) read 17.05%. O=C(NCC1(CO)COC1)C1=Cc2ccccc2OC1 gave -12.29%. CC(C)(C)c1cnnn1-c1nonc1N read 8.285%.

With CN1CCCN(CC(=O)NCCc2ncnn2C)CC1 the screen gave -11.6%. For CC(C)(C)NC(=O)C1CCCCN1 (centres unmarked) the result was -6.856%. With Cn1ncc(I)c1C(=O)Nc1ccon1 the screen gave 46.47%. CCOC(=O)CCNC(=O)N1CCN(CC(C)C)CC1 read 25.43%.

CC(C)C(CC(=O)NCC(N)=O)c1ccccc1 (centres unmarked) gave 7.217%. O=c1[nH]c(-c2ccccn2)nc2c1CCCN2 read 31.65%. O=c1ccc(F)cn1Cc1ncn(-c2ccccc2)n1 gave -20.49%. CN(C)c1nccc(NC(=O)c2ccc(Br)o2)n1 gave 21.94%.